PubChem BioAssay AID504791 – Drosophila RNAi Screening Center | 2011

Aim: 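Genes of the fly required for silencing by miRNA, siRNA or endo-siRNA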 (primary screen)
Cells: Drosophila S2-derived reporter cells
Reagent: long dsRNA against Drosophila genes, about 150-250 ng dsRNA per well (siRNA assay); about 80-120 ng (miRNA assay)
Time to read-out: about 5 days (siRNA assay); about 4 days (miRNA assay)
Challenge: copper sulfate induction of reporters: 25 µM (siRNA assay); 200 mM stated (miRNA assay), 1-2 days before reading
Measurement: 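Dual luciferase assay: Renilla to firefly signal ratio in each well, scaled to the mean ratio of its plate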
Units: stable assay Renilla, run 1 in luminescence; stable assay firefly, run 1 in luminescence
Rule for the call: 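First-pass picks had plate-scaled ratios over 1.5 for the siRNA assay, over 1.6 for the miRNA assay, or under 0.6; two distinct dsRNAs had to score alike on retest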
The screen tested about 23,000 reagents; this is an unselected part of those that have a named target and a result. Over the whole deposit, 199 (0.86%) got an active call. 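Plate-scaled ratios behind the calls are not deposited; printed light signals are raw; many rows marked increased or decreased are still called inactive.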 Unmarked entries are inactive. Reagents against one gene are numbered here. Reagent sequences are not shown. The record does not give: the direction of the score.

Against Mec2 (GeneID 32905) the deposit lists stable assay Renilla, run 1 = 7124; stable assay firefly, run 1 = 4.23e5.
For CG9215 (GeneID 32494), the entry reads stable assay Renilla, run 1 = 5864; stable assay firefly, run 1 = 3.94e5.
Against CG34296 (GeneID 5740662) the deposit lists stable assay Renilla, run 1 = 7755; stable assay firefly, run 1 = 4.63e5.
Knock-down of Ip6k (GeneID 37465) gave: stable assay Renilla, run 1 = 10167; stable assay firefly, run 1 = 6.46e5.
After knock-down of sw (GeneID 44160), the screen gave stable assay Renilla, run 1 = 5992; stable assay firefly, run 1 = 3.96e5.
After knock-down of Acph-1 (GeneID 48445), the record shows stable assay Renilla, run 1 = 6210; stable assay firefly, run 1 = 3.43e5.
Depletion of amd (GeneID 35188) #1 came out at: stable assay Renilla, run 1 = 4954; stable assay firefly, run 1 = 3.83e5.
amd (GeneID 35188) #2 gave stable assay Renilla, run 1 = 7096; stable assay firefly, run 1 = 3.90e5.
Ntan1 (GeneID 37147) scored stable assay Renilla, run 1 = 7123; stable assay firefly, run 1 = 4.09e5.
After knock-down of CG32813 (GeneID 31089), the record shows stable assay Renilla, run 1 = 5379; stable assay firefly, run 1 = 3.67e5.
Knock-down of Ube3a (GeneID 39266) came out at: stable assay Renilla, run 1 = 7128; stable assay firefly, run 1 = 4.35e5.
After knock-down of dpn (GeneID 35800) the results were stable assay Renilla, run 1 = 6963; stable assay firefly, run 1 = 3.85e5.

Sorted by “stable assay firefly, run 1” (high to low): some entries from above.
Ube3a (GeneID 39266): stable assay Renilla, run 1 = 7128; stable assay firefly, run 1 = 4.35e5
dpn (GeneID 35800): stable assay Renilla, run 1 = 6963; stable assay firefly, run 1 = 3.85e5
